Construct, isoform or probe ends are uncertain for at least one entry. At least one verdict rests on a figure or table, not on a statement of the authors.
How the values were obtained:
[1] = target: RAD52 (untagged, pET11a) (Homo sapiens) (UniProt P43351); assay: EMSA; settings: 10 nM DNA, 15-1000 nM protein, with or without 0.1% glutaraldehyde, ssDNA EMSA: 30 mM Tris-acetate pH 7.5, 1 mM DTT, RT, recombinant protein, label: 5'-Cy5 and 3'-Cy3 on strand 1
[2] = tested on: RAD52 (untagged, pET11a) + DSS1; assay: EMSA; settings: 1:20 complex, very small change versus RAD52 alone; ssDNA EMSA: 30 mM Tris-acetate pH 7.5, 1 mM DTT, RT, 0.1% glutaraldehyde; recombinant protein; label: 5'-Cy5 and 3'-Cy3 on strand 1
[3] = target: His6-RAD52 (Homo sapiens) (UniProt P43351); assay: FRET titration; settings: wrapped state gives high FRET; FRET: same buffer + 0.1 mg/ml BSA, 25 C; recombinant protein; protein details: His6 (N-terminal); label: 5'-Cy5 and 3'-Cy3 on strand 1
[4] = tested on: His6-RAD52 + DSS1; assay: FRET titration; settings: 1:20 complex, very small change versus RAD52 alone; FRET: same buffer + 0.1 mg/ml BSA, 25 C; recombinant protein; label: 5'-Cy5 and 3'-Cy3 on strand 1

Chains of the proteins cited; added tags and fusions are not shown. Lines headed by an entry give the natural chain unless they say otherwise; changes in a name come on top.
UniProt P43351: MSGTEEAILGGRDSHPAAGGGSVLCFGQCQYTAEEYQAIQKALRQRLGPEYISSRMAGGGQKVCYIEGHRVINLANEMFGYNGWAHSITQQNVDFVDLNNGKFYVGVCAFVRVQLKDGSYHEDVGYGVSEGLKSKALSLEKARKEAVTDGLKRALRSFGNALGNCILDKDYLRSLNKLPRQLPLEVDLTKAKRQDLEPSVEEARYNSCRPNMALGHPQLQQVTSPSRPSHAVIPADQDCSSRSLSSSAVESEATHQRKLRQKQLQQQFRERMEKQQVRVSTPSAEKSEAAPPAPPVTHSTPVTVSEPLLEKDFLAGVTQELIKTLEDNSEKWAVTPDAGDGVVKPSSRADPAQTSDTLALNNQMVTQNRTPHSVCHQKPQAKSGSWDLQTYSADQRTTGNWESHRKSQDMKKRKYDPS

Measured: binding result

ATAGTTATGGTGAGGACCCCTTTGTTTC (double strand) [28 bp dsDNA (Cy5-28bp-Cy3 + 28CP)]
binds: all assays above

Reference: PMC6954417
